In all, about 53,000 sequences went through this assay and about 3,700 (7%) were called active.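 How the source made its calls: active means gene knockdowns whose robust z-score for IL-1 alpha signal is at least 2 or at most -2, so actives lie on both sides; inactive means the rest.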 The list shows a part of the results.
Test: Components of the Cytosolic LPS Sensing Pathway: Gene Identification via Genome-wide siRNA Screen;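 further: robust z of the log signal after scaling to non-targeting control siRNA wells of the plate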
Conditions: RAW264.7 macrophages, IL-1a HTRF, actives lie on both sides, screened at 100 nM (by protocol), cells primed 5 h with Pam3CSK4 first
Outline: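 Supernatant IL-1a by HTRF from RAW264.7 cells primed with Pam3CSK4 (5 hours) and transfected with LipidA (24 hour) after 48h siRNA knockdown at 100 nM; cell viability checked with CellTiter-Glo.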
With GGUGUUGCUUAUCAUCGGCTT against Mrgprh the z-score was active: -2.03.
With GCUUAGACACAUCAAGAGATT against Bend5 the z-score was inactive: -0.382.
In the case of GGAUGAGAACUUCAUCCUATT against Ppia, the z-score is reported as inactive: -0.13.
With GGUACUCUGGAGCUUCAAGTT against Pagr1a the z-score was inactive: -1.89.
In the case of GGUUCUAUGGCUCUCAAGATT against Ptgir, the z-score is reported as inactive: -0.625.
For GGUGUCAGAACAAGGUUUGTT against Pdcd5, the z-score was inactive: 1.52.
For GGAGCCAGAACUAGAAGCUTT against Nol3, the z-score was inactive: -1.39.
With GGCCUUGUUAACAGAACAUTT against Sgo2a the z-score was inactive: 0.899.
In the case of GGAGGUGCUAAGGAGAAGATT against Plagl2, the z-score is reported as inactive: 0.034.
With GGAAAACUUGCUUACGCAUTT against Zfp146 the z-score was inactive: 0.68.
In the case of GGAUCUAUGAAACCACCGUTT against Gpx8, the z-score is reported as inactive: 0.874.
With GCAUGUGAACAUAUUCAAATT against Scaf11 the z-score was inactive: 1.63.
In the case of GGUAUUUGCUGAACUGUUUTT against Ckmt1, the z-score is reported as inactive: -0.931.
In the case of CGAGAUAGAGUACAUCUUCTT against Vegfa, the z-score is reported as inactive: 0.412.
For GGCUCAAGGCACUCAAUACTT against Olfr550, the z-score was inactive: -0.0393.
With GUAUCAUACAAUGAUGUCCTT against Olfr176 the z-score was inactive: -0.392.
With GGUAGAGAAUUGAAACCUATT against Klhdc10 the z-score was inactive: -0.776.
In the case of AACCAGAGGUCCUAAAUACTT against Mmp28, the z-score is reported as inactive: -0.948.
In the case of CGGACUUACCAAAAGCGCATT against Lss, the z-score is reported as active: 3.16.
For AGUCACAGUAAUCUCCUACTT against Platr25, the z-score was inactive: -0.872.
In the case of GGCCAUGGUUUCAAAAACATT against Rspo2, the z-score is reported as inactive: -1.33.
For GGCCCUUUGAAGAGAAUCGTT against Hnrnpul1, the z-score was inactive: -0.771.
With GGAUUUAAAAGAGGCAGAATT against Sil1 the z-score was inactive: 0.159.
With GCAGCAUCCCUACACGUUCTT against Galnt2 the z-score was inactive: 0.281.
For CCACUUCUCUAAGACAAUCTT against Acox3, the z-score was inactive: -0.107.
For GCUACCAAUAGGAAUAAAATT against Vmn1r226, the z-score was inactive: 0.965.
In the case of CCCACUUCCGAUCCAAAGATT against Zfp593, the z-score is reported as inactive: 0.936.
For GGUCAAGACUAGCUACUUUTT against Gsdme, the z-score was inactive: -0.917.
With GGUGGCUUAGCACGAAGCATT against Elk1 the z-score was inactive: 0.0968.
With GCUACCCUGAAUGCAACGUTT against Slc13a5 the z-score was inactive: -0.291.
For GGAACUGGAAAUCUCAGAGTT against Pcdh12, the z-score was inactive: 0.447.
For CCUUUGUUCCACAUAAUAATT against Vmn1r10, the z-score was inactive: -0.738.
In the case of CGGUAGAGCGCAAAGAUUATT against Nefm, the z-score is reported as inactive: 0.0814.
For GCCACAUUGGAAGUAUCGATT against Pdk4, the z-score was inactive: -0.613.
For GCACGUAUGCUCUUUCUCATT against Pigw, the z-score was active: -2.52.
For GGUUUCUUUGCCUACCCAGTT against Prrc2b, the z-score was inactive: -1.13.
With CCUUCAACUUCCAUUUUUCTT against Ugt2b36 the z-score was inactive: -1.28.
For CGUGUGGUUAGUACCUAAUTT against Grin2c, the z-score was inactive: 1.23.
In the case of GGAAUCUUCCAGAACUAAATT against Rufy1, the z-score is reported as inactive: 0.912.
In the case of GCCUGCUCUUGAAGGAUAATT against Ptpn9, the z-score is reported as inactive: -0.635.
With GGACAACAUUGCUAAAUUUTT against Ces1e the z-score was inactive: 0.0577.
In the case of GCCAAAUUCUGGCUUCUUCTT against Cdc26, the z-score is reported as inactive: 1.15.
In the case of GCUGUAGCUCCAACAAUUUTT against Olfr1442, the z-score is reported as inactive: -0.908.
For GCAGUCUUCCCUCAUCCUUTT against Cox8a, the z-score was inactive: 1.74.
In the case of GGAGGCCCUCAUGAAACGUTT against Ctc1, the z-score is reported as inactive: 1.01.
With GCAGUUACAAGACUCCUUGTT against Ctnna3 the z-score was inactive: 0.268.
For GGAGCCACAGAACAUAUUATT against Pinx1, the z-score was inactive: 0.497.
In the case of GCUGAUUAUCACAUCAGUGTT against Dph1, the z-score is reported as inactive: 1.22.
For GGGUUUUGUCAAUCAAAUATT against Dimt1, the z-score was inactive: 0.68.
With GGCUGACAAUGUUAAAAGUTT against Nucks1 the z-score was inactive: -1.77.
In the case of GGUCUUUAUACAGAGAUAATT against Naa15, the z-score is reported as inactive: -0.495.
For GGAGAACCAUAAUAAGAGUTT against Tnfrsf26, the z-score was active: -2.88.
With GGCUAUUUGAAAACCAACUTT against Apmap the z-score was inactive: -0.369.
In the case of GGAAAACCACCAUUUUAUGTT against Zfp36l1, the z-score is reported as inactive: 0.746.
For GGUUGCUAUGAUUUUUGUUTT against Itsn1, the z-score was inactive: 0.52.
With GGGCCAAUAGGAGUUCUUUTT against Tcf20 the z-score was inactive: 0.285.
With GCUUUAGGAAAUUUUGUGUTT against Ska3 the z-score was inactive: -1.05.
For CGGUGACAUUUGUGAAACUTT against Smn1, the z-score was active: -2.05.
For GGAAACCAUCGAGCAAGAGTT against Tmsb15a, the z-score was inactive: 0.26.
For CGAGGUCAUUCACUCUCGUTT against Hapln2, the z-score was inactive: -0.286.
In the case of GCAAUAGGAAGACCACUUATT against Rhno1, the z-score is reported as inactive: -1.46.
For GGGAUUGCCGGACAUGGAUTT against Maco1, the z-score was inactive: -1.27.
In the case of GGUACCCUUAUUGGAUAUUTT against Slc30a5, the z-score is reported as inactive: 1.59.
For GGAUAUGCUUAGAUAGACCTT against Galk2, the z-score was inactive: -0.127.
With GCUCGAAUGUGUAAAGACGTT against Csnk1e the z-score was inactive: 0.982.
With GGCUGUUUUCUAUCCUAGGTT against Cd207 the z-score was active: -2.82.
With GGAAGAUGAUUUUGACAAUTT against Pcdh18 the z-score was inactive: -0.637.
In the case of “GCUGGAUCUACCUAUUCAATT against 4921509C19Rik”, the z-score is reported as inactive: 0.0442.

— PubChem BioAssay AID1508600 (Functional Genomics Laboratory (NCATS/FGL), 2020)
